Experimental findings from US5118392A, “Separation of trichloroethylene from a butyl alcohol by extractive distillation” (priority 1991, dated 1992) are described below.

The structures appear in SMILES notation.

The data set can be described thus: Vapor-liquid equilibrium still, trichloroethylene-2-butanol azeotrope with extractive distillation agent. Particulars: trichloroethylene from 2-butanol, Table 7. The data set is classed as physicochemical. From the text:
The data in Tables 2, 3, 5, 7, 8, 10 and 11 was obtained in a vapor-liquid equilibrium still. In every case, the starting mixture was the trichloroethylene-butanol azeotrope. The relative volatilities are listed for each of the agents.
Seventy grams of the trichloroethylene-2-butanol azeotrope and 30 grams of 2-methyl-1-pentanol were charged to the vapor-liquid equilibrium still and refluxed for two hours.

Turning to `CC(C)CC(C)O` (stereo not shown) [4-Methyl-2-pentanol], the “Relative Volatility” value is 1.75.
